In the experiment the test system is BDF1 mice, B16 melanoma s.c., survival/tumor T/C. As to the kind of experiment: NCI In Vivo Anticancer Drug Screen. Data for tumor model B16 Melanoma (subcutaneous) in B6D2F1 (BDF1) mice. Conditions: T/C endpoint: median survival time, higher T/C = longer survival. How it is done:
The antitumor activity of compounds was measured in mice bearing transplantable tumors. Survival or tumor size were measured and the results are expressed as the measurement made in the treated group (T) divided by the measurement made in the vehicle treated control group (C). The tumor model used in this assay is B16 Melanoma (subcutaneous) in B6D2F1 (BDF1) mice

[1] abbreviates: dose: 25.0 mg/kg/injection, schedule: Q01DX009 (ip), vehicle: Klucel (hydroxypropylcellulose) (HPC).
The mark [2] stands for this setting: dose: 50.0 mg/kg/injection, schedule: Q01DX009 (ip), vehicle: Klucel (hydroxypropylcellulose) (HPC).
The mark [3] stands for this setting: dose: 2.0 mg/kg/injection, schedule: Q01DX009 (ip), vehicle: saline.

The list shows only some results of the screen, not a fair sample: it is rich in T/C values a quarter to a half above the control, in often repeated tests (any T/C) and in doses without a T/C. Other doses and runs of a compound stand elsewhere. T/C gives the treated animals as a percentage of the vehicle group. Some entries give survivors of the animals treated and no T/C: the source holds a T/C of zero for them, seemingly a mark for toxic or unscored doses. Some doses without a T/C left all or most animals alive at the check, yet need not have been tolerated: survival well below the control is almost never listed, so the zero probably covers shortened survival too. Counts of survivors are from the toxicity check (mostly the fifth day) where no day follows; animals may have died later. Schedule codes are those of the source, read here as Q, the interval in days (D) or hours (H), X, the number of doses. Some doses were run more than once; the values are given in rising order. Where survival is the endpoint, the PubChem record calls one and a half times the control and up active, and a quarter to a half above the control has no call in these data; cut-offs in other NCI protocols can differ. Some T/C values are followed by the survivors on the day toxicity was checked, most often the fifth; where none is given, no animal had died by that day. Where a SMILES comes first, the peptide text is derived from it. Bridges are numbered along the chain shown (N, C = ends). Roman numbers before positions name the chains, in order. [ ]: non-standard residue; d: D form. The star is where a group is joined. Quinoxaline2carbonyl = O=C(c1cnc2ccccc2n1)*; NMeV = CN[CH](C(=O)O)C(C)C; NMeC = CN[CH](CS)C(=O)O

`COC(=O)C1C2CC3c4[nH]c5cc(OC)ccc5c4CCN3CC2CC(OC2CCCCO2)C1OC` (configuration not stated): the survivor count (dose: 6.25 mg/kg/injection, schedule: Q01DX009 (ip), vehicle: Klucel (hydroxypropylcellulose) (HPC)) is reported as 10 of 10; the survivor count (dose: 12.5 mg/kg/injection, schedule: Q01DX009 (ip), vehicle: Klucel (hydroxypropylcellulose) (HPC)) is reported as 10 of 10; the survivor count under setting [1] is given as 10 of 10; the survivor count under setting [2] is given as 10 of 10; the survivor count (dose: 100.0 mg/kg/injection, schedule: Q01DX009 (ip), vehicle: Klucel (hydroxypropylcellulose) (HPC)) is 10 of 10.
With `Nc1nc(=S)c2[nH]cnc2[nH]1`, the survivor count is listed as 9 of 10 (dose: 71.0 mg/kg/injection, schedule: Q01DX001 (ip), vehicle: alkali diluted with saline) and 8 of 10 (dose: 107.0 mg/kg/injection, schedule: Q01DX001 (ip), vehicle: alkali diluted with saline).
`NNC(=O)c1ccncc1`: the T/C by setting is: (dose: 16.0 mg/kg/injection, schedule: Q01DX009 (ip), vehicle: saline) 135 % of control; (dose: 32.0 mg/kg/injection, schedule: Q01DX009 (ip), vehicle: saline) 135 % of control. For the same compound, the survivor count (dose: 256.0 mg/kg/injection, schedule: Q01DX009 (ip), vehicle: saline) is 3 of 10.
For the compound `O=C1C=CC(=O)N1c1ccc(Cl)cc1`, where the note is “dose: 2.5 mg/kg/injection, schedule: Q01DX009 (ip), vehicle: Klucel (hydroxypropylcellulose) (HPC)”, the T/C was 132 % of control.
On to `Nc1ccc(N=Nc2ccccc2)c(N)c1`, for which the survivor count (dose: 200.0 mg/kg/injection, schedule: Q01DX009 (ip), vehicle: Klucel (hydroxypropylcellulose) (HPC)) was 10 of 10.
On to `C[C@@H]1CC[C@@]2(NC1)O[C@H]1C[C@H]3[C@@H]4CC=C5C[C@@H](O)CC[C@]5(C)[C@H]4CC[C@]3(C)[C@H]1[C@@H]2C`, for which, where the note is “dose: 3.13 mg/kg/injection, schedule: Q01DX009 (ip), vehicle: Klucel (hydroxypropylcellulose) (HPC)”, the T/C is 140 % of control.
Consider `CC1NC(=O)C(NC(=O)c2cnc3ccccc3n2)COC(=O)C(C(C)C)N(C)C(=O)C2CSSCC(C(=O)N(C)C(C(C)C)C(=O)OCC(NC(=O)c3cnc4ccccc4n3)C(=O)NC(C)C(=O)N2C)N(C)C1=O` (configuration not stated) (I: Quinoxaline2carbonyl-SA[NMeC][NMeV] / II: Quinoxaline2carbonyl-SA[NMeC][NMeV]; ester I:1-II:C, I:C-II:1; disulfide I:3-II:3; configuration not given here), for which the survivor count (dose: 180.0 micrograms/kg/injection, schedule: Q01DX009 (ip), vehicle: Klucel (hydroxypropylcellulose) (HPC)) is on record as 10 of 10.
For `CNc1ncnc2c1cnn2C`, the survivor count reads like this: (dose: 40.0 mg/kg/injection, schedule: Q01DX009 (ip), vehicle: saline) 10 of 10; (dose: 80.0 mg/kg/injection, schedule: Q01DX009 (ip), vehicle: saline) 10 of 10.
For `Cc1c(N)nc(C(CC(N)=O)NCC(N)C(N)=O)nc1C(=O)NC(C(=O)NC(C)C(O)C(C)C(=O)NC(C(=O)NCCc1nc(-c2nc(C(=O)NCCCNCCCc3ccccn3)cs2)cs1)C(C)O)C(OC1OC(CO)C(O)C(O)C1OC1OC(CO)C(O)C(OC(N)=O)C1O)c1cnc[nH]1` (configuration not stated), the T/C by setting is: (dose: 0.8 mg/kg/injection, schedule: Q01DX010 (ip), vehicle: water) 127 and 129 % of control; (dose: 1.6 mg/kg/injection, schedule: Q01DX010 (ip), vehicle: water) 131 % of control.
Take `CCCCNCCCNCCCNC(=O)c1csc(-c2csc(CCNC(=O)C(NC(=O)C(C)C(O)C(C)NC(=O)C(NC(=O)c3nc(C(CC(N)=O)NCC(N)C(N)=O)nc(N)c3C)C(OC3OC(CO)C(O)C(O)C3OC3OC(CO)C(O)C(OC(N)=O)C3O)c3cnc[nH]3)C(C)O)n2)n1` (configuration not stated): the T/C was 130 % of control (dose: 1.25 mg/kg/injection, schedule: Q01DX009 (ip), vehicle: water); 127 % of control (dose: 2.5 mg/kg/injection, schedule: Q01DX009 (ip), vehicle: water); 137 % of control (dose: 5.0 mg/kg/injection, schedule: Q01DX009 (ip), vehicle: water).
In the case of `Nc1nncs1`, the T/C (dose: 26.0 mg/kg/injection, schedule: Q01DX009 (ip), vehicle: saline with Tween-80) was 126 % of control; the T/C (dose: 39.0 mg/kg/injection, schedule: Q01DX009 (ip), vehicle: saline with Tween-80) was 125 % of control [9 of 10 alive]; the T/C (dose: 800.0 mg/kg/injection, schedule: Q04DX003 (ip), vehicle: saline with Tween-80) was 143 % of control; the T/C (dose: 1340.0 mg/kg/injection, schedule: Q01DX001 (ip), vehicle: saline with Tween-80) is 126 % of control [9 of 10 alive].
On to `S=P(N1CC1)(N1CC1)N1CC1`, for which the survivor count (dose: 1.0 mg/kg/injection, schedule: Q01DX009 (ip), vehicle: saline) is on record as 6 of 6; the survivor count (dose: 8.0 mg/kg/injection, schedule: Q02DX009 (ip), vehicle: saline) is listed as 9 of 10; the survivor count (dose: 16.0 mg/kg/injection, schedule: Q02DX009 (ip), vehicle: saline) is 9 of 10 and 10 of 10; the survivor count (dose: 25.0 mg/kg/injection, schedule: Q01DX001 (ip), vehicle: saline) was 6 of 6; the survivor count (dose: 32.0 mg/kg/injection, schedule: Q01DX001 (oral), vehicle: saline) is recorded as 9 of 10; the survivor count (dose: 32.0 mg/kg/injection, schedule: Q02DX009 (ip), vehicle: saline) was 5 of 10 and 6 of 10. For the same compound, the survivor count by setting is: (dose: 64.0 mg/kg/injection, schedule: Q01DX001 (oral), vehicle: saline) 6 of 10; (dose: 64.0 mg/kg/injection, schedule: Q02DX009 (ip), vehicle: saline) 4 of 10 and 6 of 10; (dose: 128.0 mg/kg/injection, schedule: Q01DX001 (oral), vehicle: saline) 7 of 10; (dose: 256.0 mg/kg/injection, schedule: Q01DX001 (oral), vehicle: saline) 2 of 10; (dose: 512.0 mg/kg/injection, schedule: Q01DX001 (oral), vehicle: saline) 1 of 10.
Turning to `CC1=CCC(C(C)C)C=C1` (configuration not stated), the survivor count is, setting by setting: under setting [1], 10 of 10; under setting [2], 10 of 10.
For `CCC(=O)OCC(=O)[C@]1(O)Cc2c(O)c3c(c(O)c2[C@@H](OC2CC(N)C(O)C(C)O2)C1)C(=O)c1c(OC)cccc1C3=O` (some centres not stated), the survivor count under setting [3] was 10 of 10; the survivor count (dose: 4.0 mg/kg/injection, schedule: Q01DX009 (ip), vehicle: saline) was 10 of 10; the survivor count (dose: 8.0 mg/kg/injection, schedule: Q01DX009 (ip), vehicle: saline) was 10 of 10.
On to `OC(CCl)CN1CC[N+]2(CC1)CC[N+]1(CCN(CC(O)CCl)CC1)CC2` (configuration not stated), for which the T/C is 125 % of control (dose: 134.0 mg/kg/injection, schedule: Q01DX009 (ip), vehicle: saline) and 127 % of control (dose: 200.0 mg/kg/injection, schedule: Q01DX007 (ip), vehicle: saline).
As to `CSCS(=O)C[C@H](CO)NC(=O)/C=C/c1c(C)[nH]c(=O)[nH]c1=O` (some centres not stated), the survivor count (dose: 1.2 mg/kg/injection, schedule: Q01DX009 (ip), vehicle: water) is listed as 6 of 10.
With `Cc1cc(OCc2nc(N)nc(N)c2-c2ccc(Cl)c(Cl)c2)ccc1NS(=O)(=O)c1cccc(S(=O)(=O)F)c1`, the T/C (dose: 264.0 mg/kg/injection, schedule: Q04DX003 (ip), vehicle: saline) is 145 % of control. In addition, the survivor count (dose: 400.0 mg/kg/injection, schedule: Q04DX003 (ip), vehicle: saline) is recorded as 6 of 6.
For the compound `CO[C@H](C(=O)[C@@H](O)[C@@H](C)O)[C@@H]1Cc2cc3cc(OC4CC(OC5CC(O)C(O)C(C)O5)C(O)C(C)O4)c(C)c(O)c3c(O)c2C(=O)[C@H]1OC1CC(OC2CC(OC3CC(C)(O)C(O)C(C)O3)C(O)C(C)O2)C(O)C(C)O1` (some centres not stated), the survivor count is listed as 9 of 10 (dose: 0.12 mg/kg/injection, schedule: Q01DX009 (ip), vehicle: water); 4 of 10 (dose: 0.25 mg/kg/injection, schedule: Q01DX009 (ip), vehicle: water); 1 of 10 (dose: 0.5 mg/kg/injection, schedule: Q01DX009 (ip), vehicle: water); 4 of 10 (dose: 1.0 mg/kg/injection, schedule: Q01DX009 (ip), vehicle: water); 2 of 10 under setting [3]; 2 of 10 (dose: 2.0 mg/kg/injection, schedule: Q01DX009 (ip), vehicle: water).

The values above are taken from PubChem BioAssay AID194 (DTP/NCI, 2004).
